# Test system: MCF7 cells
# Assay: Ingenuity Pathway Analysis of the proteomics datasets
# Parameters: species or system Human
# Details: 10 µM, 48 hours vs vehicle
# [1] = IPA biological function, Cell Cycle, DNA Replication, Recombination, and Repair
# [2] = IPA biological function, Cell Morphology, Cellular Function and Maintenance, DNA Replication, Recombination, and Repair
# [3] = IPA biological function, Cell Morphology
# [4] = IPA biological function, Cellular Assembly and Organization
# [5] = IPA biological function, Cellular movement
smiles,measurement,setting,value
"COc1cc(-n2c(=S)[nH]c3ccccc3c2=O)c(Cl)cc1Cl [mDIVI1, 3-(2,4-Dichloro-5-methoxyphenyl) 2,3-dihydro 2-thioxo-4(1H) quinazolinone]","Activation z-score, Cytokinesis","IPA biological function, Cell Cycle, Cellular Movement",−0.669
same,"Activation z-score, Homologous recombination",[1],−1.387
same,"Activation z-score, Homologous recombination of cells",[1],−1.732
same,"Activation z-score, Recombination of cells",[1],−1.732
same,"Activation z-score, Cell cycle progression","IPA biological function, Cell Cycle",−1.762
same,"Activation z-score, Cell viability","IPA biological function, Cell Death and Survival",−2.813
same,"Activation z-score, Double-stranded DNA break repair of cells",[2],2.069
same,"Activation z-score, Repair of cells",[2],1.921
same,"Activation z-score, Cell spreading",[3],−1.633
same,"Activation z-score, Shape change of tumour cell lines",[3],−1.446
same,"Activation z-score, Formation of cytoskeleton",[4],1.95
same,"Activation z-score, Formation of nucleus",[4],−2
same,"Activation z-score, Endocytosis","IPA biological function, Cellular Function and Maintenance",−1.832
same,"Activation z-score, Cell movement",[5],−1.295
same,"Activation z-score, Cell movement of breast cancer cell lines",[5],−1.968
same,"Activation z-score, Cell movement of tumour cell lines",[5],−1.628
same,"Activation z-score, Invasion of cells",[5],−1.806
same,"Activation z-score, Invasion of tumour cell lines",[5],−1.652
same,"Activation z-score, Migration of tumour cell lines",[5],−1.164
same,"Activation z-score, Double-stranded DNA break repair","IPA biological function, DNA Replication, Recombination, and Repair",2.123
same,"Activation z-score, Transcription","IPA biological function, Gene Expression",1.993
same,"Ratio, AMPK Signaling",IPA canonical pathway,0.101
same,"Ratio, Actin Cytoskeleton Signaling",IPA canonical pathway,0.176
same,"Ratio, Actin Nucleation by ARP-WASP Complex",IPA canonical pathway,0.196
same,"Ratio, Agranulocyte Adhesion and Diapedesis",IPA canonical pathway,0.0857
same,"Ratio, Apoptosis Signaling",IPA canonical pathway,0.114
same,"Ratio, Assembly of RNA Polymerase I Complex",IPA canonical pathway,0.333
same,"Ratio, Axonal Guidance Signaling",IPA canonical pathway,0.0703
same,"Ratio, CDK5 Signaling",IPA canonical pathway,0.0918
same,"Ratio, Calcium Signaling",IPA canonical pathway,0.1
same,"Ratio, Caveolar-mediated Endocytosis Signaling",IPA canonical pathway,0.239
same,"Ratio, Cdc42 Signaling",IPA canonical pathway,0.109
same,"Ratio, Cell Cycle Control of Chromosomal Replication",IPA canonical pathway,0.185
same,"Ratio, Clathrin-mediated Endocytosis Signaling",IPA canonical pathway,0.143
same,"Ratio, Cleavage and Polyadenylation of Pre-mRNA",IPA canonical pathway,0.333
same,"Ratio, DNA Double-Strand Break Repair by Non-Homologous End Joining",IPA canonical pathway,0.357
same,"Ratio, DNA Methylation and Transcriptional Repression Signaling",IPA canonical pathway,0.2
same,"Ratio, Death Receptor Signaling",IPA canonical pathway,0.11
same,"Ratio, EIF2 Signaling",IPA canonical pathway,0.173
same,"Ratio, ERK/MAPK Signaling",IPA canonical pathway,0.0909
same,"Ratio, Ephrin Receptor Signaling",IPA canonical pathway,0.0872
same,"Ratio, Epithelial Adherens Junction Signaling",IPA canonical pathway,0.189
same,"Ratio, Estrogen Receptor Signaling",IPA canonical pathway,0.125
same,"Ratio, FAK Signaling",IPA canonical pathway,0.153
same,"Ratio, Fatty Acid Biosynthesis Initiation II",IPA canonical pathway,1
same,"Ratio, GM-CSF Signaling",IPA canonical pathway,0.11
same,"Ratio, Gap Junction Signaling",IPA canonical pathway,0.0854
same,"Ratio, Germ Cell-Sertoli Cell Junction Signaling",IPA canonical pathway,0.183
same,"Ratio, ILK Signaling",IPA canonical pathway,0.161
same,"Ratio, Integrin Signaling",IPA canonical pathway,0.156
same,"Ratio, Ketolysis",IPA canonical pathway,0.286
same,"Ratio, Leukocyte Extravasation Signaling",IPA canonical pathway,0.122
same,"Ratio, Mevalonate Pathway I",IPA canonical pathway,0.25
same,"Ratio, Mitotic Roles of Polo-Like Kinase",IPA canonical pathway,0.206
same,"Ratio, PAK Signaling",IPA canonical pathway,0.11
same,"Ratio, Palmitate Biosynthesis I",IPA canonical pathway,1
same,"Ratio, Paxillin Signaling",IPA canonical pathway,0.2
same,"Ratio, Pentose Phosphate Pathway",IPA canonical pathway,0.3
same,"Ratio, Phagosome maturation",IPA canonical pathway,0.178
same,"Ratio, Protein Kinase A Signaling",IPA canonical pathway,0.0775
same,"Ratio, Protein Ubiquitination Pathway",IPA canonical pathway,0.114
same,"Ratio, RAN Signaling",IPA canonical pathway,0.25
same,"Ratio, Rac Signaling",IPA canonical pathway,0.112
same,"Ratio, Regulation of Actin-based Motility by Rho",IPA canonical pathway,0.207
same,"Ratio, Regulation of Cellular Mechanics by Calpain Protease",IPA canonical pathway,0.236
same,"Ratio, Regulation of eIF4 and p70S6K Signaling",IPA canonical pathway,0.175
same,"Ratio, Remodeling of Epithelial Adherens Junctions",IPA canonical pathway,0.348
same,"Ratio, RhoA Signaling",IPA canonical pathway,0.158
same,"Ratio, RhoGDI Signaling",IPA canonical pathway,0.134
same,"Ratio, Role of BRCA1 in DNA Damage Response",IPA canonical pathway,0.179
same,"Ratio, Sertoli Cell-Sertoli Cell Junction Signaling",IPA canonical pathway,0.156
same,"Ratio, Signaling by Rho Family GTPases",IPA canonical pathway,0.102
same,"Ratio, Superpathway of Cholesterol Biosynthesis",IPA canonical pathway,0.222
same,"Ratio, Telomere Extension by Telomerase",IPA canonical pathway,0.267
same,"Ratio, Tight Junction Signaling",IPA canonical pathway,0.175
same,"Ratio, Unfolded protein response",IPA canonical pathway,0.132
same,"Ratio, mTOR Signaling",IPA canonical pathway,0.123
same,"Z score, Actin Nucleation by ARP-WASP Complex",IPA canonical pathway,−1.51
same,"Z score, ERK/MAPK Signaling",IPA canonical pathway,−0.47
same,"Z score, Mitotic Roles of Polo-Like Kinase",IPA canonical pathway,0.82
same,"Z score, Protein Kinase A Signaling",IPA canonical pathway,−1.61
same,"Z score, Regulation of Cellular Mechanics by Calpain Protease",IPA canonical pathway,−2.24
same,"Ratio, Cholesterol Biosynthesis",Ingenuity Toxicity Lists,0.312
same,"Ratio, Decreases Permeability Transition of Mitochondria and Mitochondrial Membrane",Ingenuity Toxicity Lists,0.429
same,"Ratio, Fatty Acid Metabolism",Ingenuity Toxicity Lists,0.133

# From PMC5862576, “Mitochondrial fission as a driver of stemness in tumor cells: mDIVI1 inhibits mitochondrial function, cell migration and cancer stem cell (CSC) signalling” (Oncotarget, 2018)
